Experimental data reported in paper PMC5619820.
No constants are given. Whether binding was seen depends on the method and setting. In cells and extracts the contact can be indirect. Some entries that bind do so weakly or less than the wild type.

Chains of the proteins cited; added tags and fusions are not shown. Residues count along the entry.
UniProt P10275: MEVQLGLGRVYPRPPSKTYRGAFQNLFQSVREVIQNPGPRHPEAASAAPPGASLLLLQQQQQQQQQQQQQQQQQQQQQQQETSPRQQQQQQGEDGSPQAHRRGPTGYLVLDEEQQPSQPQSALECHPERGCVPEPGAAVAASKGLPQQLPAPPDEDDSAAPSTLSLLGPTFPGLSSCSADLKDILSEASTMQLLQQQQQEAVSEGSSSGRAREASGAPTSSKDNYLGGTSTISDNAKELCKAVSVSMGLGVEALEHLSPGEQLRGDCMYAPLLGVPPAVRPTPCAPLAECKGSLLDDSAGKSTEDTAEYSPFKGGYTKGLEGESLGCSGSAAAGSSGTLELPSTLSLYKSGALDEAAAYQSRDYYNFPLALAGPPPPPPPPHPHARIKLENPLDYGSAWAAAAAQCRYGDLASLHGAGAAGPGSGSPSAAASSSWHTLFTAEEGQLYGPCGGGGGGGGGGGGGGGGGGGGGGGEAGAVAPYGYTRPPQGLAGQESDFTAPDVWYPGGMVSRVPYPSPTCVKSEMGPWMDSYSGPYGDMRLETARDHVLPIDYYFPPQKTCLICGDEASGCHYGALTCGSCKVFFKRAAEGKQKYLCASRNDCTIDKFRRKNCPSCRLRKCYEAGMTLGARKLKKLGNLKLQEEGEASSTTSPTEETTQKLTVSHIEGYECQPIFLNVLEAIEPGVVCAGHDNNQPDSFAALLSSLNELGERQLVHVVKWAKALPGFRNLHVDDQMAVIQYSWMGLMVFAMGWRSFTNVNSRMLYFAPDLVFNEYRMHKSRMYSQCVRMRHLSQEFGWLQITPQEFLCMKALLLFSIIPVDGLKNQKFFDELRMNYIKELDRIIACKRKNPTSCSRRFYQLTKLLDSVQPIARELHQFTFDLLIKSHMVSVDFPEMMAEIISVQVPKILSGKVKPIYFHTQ
UniProt P29317, residues 24-976: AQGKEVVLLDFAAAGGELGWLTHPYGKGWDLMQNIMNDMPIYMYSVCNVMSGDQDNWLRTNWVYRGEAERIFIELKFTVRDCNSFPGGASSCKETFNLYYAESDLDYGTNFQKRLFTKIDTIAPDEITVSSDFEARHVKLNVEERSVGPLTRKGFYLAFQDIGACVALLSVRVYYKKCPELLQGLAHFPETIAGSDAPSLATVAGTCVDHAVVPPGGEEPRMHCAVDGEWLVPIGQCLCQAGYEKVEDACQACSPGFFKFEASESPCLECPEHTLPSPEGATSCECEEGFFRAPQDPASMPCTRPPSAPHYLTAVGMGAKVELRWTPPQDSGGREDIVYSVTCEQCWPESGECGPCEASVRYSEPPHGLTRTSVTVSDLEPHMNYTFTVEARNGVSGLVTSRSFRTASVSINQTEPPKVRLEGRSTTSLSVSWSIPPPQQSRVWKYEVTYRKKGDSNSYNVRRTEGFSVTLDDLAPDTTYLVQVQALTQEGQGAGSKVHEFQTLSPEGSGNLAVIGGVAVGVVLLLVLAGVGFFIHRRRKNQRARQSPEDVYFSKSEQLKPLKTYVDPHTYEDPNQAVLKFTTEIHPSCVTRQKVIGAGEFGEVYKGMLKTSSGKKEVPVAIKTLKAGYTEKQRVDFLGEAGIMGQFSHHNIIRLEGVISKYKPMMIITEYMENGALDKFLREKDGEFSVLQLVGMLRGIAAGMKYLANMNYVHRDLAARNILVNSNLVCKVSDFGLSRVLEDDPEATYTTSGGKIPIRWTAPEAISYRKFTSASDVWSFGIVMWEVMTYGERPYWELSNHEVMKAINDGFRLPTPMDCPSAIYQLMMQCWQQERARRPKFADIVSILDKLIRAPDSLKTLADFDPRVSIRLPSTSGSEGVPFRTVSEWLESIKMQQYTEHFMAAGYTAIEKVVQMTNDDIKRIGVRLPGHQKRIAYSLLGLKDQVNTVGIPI

Target: androgen receptor (AR), endogenous in SLK cells (human (endogenous in SLK)) (UniProt P10275)
Test: co-IP; endogenous proteins; SLK cells serum-starved 6 h, uninfected or KSHV-infected for the indicated times; lysate in RIPA buffer precipitated with an anti-AR antibody, western blotting

Substance	binding
ephrin receptor A2 (EphA2), endogenous in SLK cells (from UniProt P29317 24-976)	binds
EphA2 phosphorylated at Ser897, endogenous in KSHV-infected SLK cells (from UniProt P29317 24-976) (receptor)	binds
